Structures can show the parent of a compound that is named as a salt. ± gives the standard deviation of the averaged measurements. Some of the results follow. Many values rest on one well or one pass, so single values are uncertain.
System: RAW 264.7
Assay: cell viability (MTT) relative to vehicle control; higher = more viable cells
Details: stimulus: HMGB1 5 ug/ml, 18 h
[1] = compound concentration: 1 ug/ml

Structure (SMILES): C[C@H](N)CO
- cell viability (compound concentration: 3 uM): 123%

Structure (SMILES): O=c1cc(-c2ccccc2O)oc2c(O)c(O)ccc12
- cell viability [1]: 86%

Structure (SMILES): Nc1nc(Cl)nc2c1ncn2[C@H]1C[C@H](O)[C@@H](CO)O1
- cell viability (compound concentration: 3 uM): 83.8%

Structure (SMILES): Nc1nc(Cl)nc2c1ncn2[C@H]1C[C@H](O)[C@@H](CO)O1 [Cladribine]
- cell viability (compound concentration: 3 uM): 70.9%

Structure (SMILES): Cc1cccc(C(=O)O)c1O
- cell viability (compound concentration: 3 uM): 113%

Structure (SMILES): CN[C@@H]1[C@H](O[C@H]2[C@H](O[C@H]3[C@H](O)[C@@H](O)[C@H](N=C(N)N)[C@@H](O)[C@@H]3N=C(N)N)O[C@@H](C)[C@]2(O)C=O)O[C@@H](CO)[C@H](O)[C@H]1O
- cell viability (compound concentration: 3 uM): 108%

Structure (SMILES): CN[C@@H]1[C@H](O[C@H]2[C@H](O[C@H]3[C@H](O)[C@@H](O)[C@H](N=C(N)N)[C@@H](O)[C@@H]3N=C(N)N)O[C@@H](C)[C@]2(O)C=O)O[C@@H](CO)[C@H](O)[C@H]1O [Streptomycin sulfate]
- cell viability (compound concentration: 3 uM): 93.2%

Structure (SMILES): CN[C@@H]1[C@H](O[C@H]2[C@H](O[C@H]3[C@H](O)[C@@H](O)[C@H](N=C(N)N)[C@@H](O)[C@@H]3N=C(N)N)O[C@@H](C)[C@]2(O)C=O)O[C@@H](CO)[C@H](O)[C@H]1O [Streptomycin]
- cell viability (compound concentration: 3 uM): 103%

Structure (SMILES): COc1cccc2c1[C@@H]1CN(CCCCn3c(=O)[nH]c4c(sc5ncc(-c6ccccc6)nc54)c3=O)C[C@@H]1CO2 [Fiduxosin hydrochloride]
- cell viability (compound concentration: 3 uM): 105%

Structure (SMILES): CCCCCCc1ccc(O)cc1O.Nc1c2ccccc2nc2ccccc12
- cell viability (compound concentration: 3 uM): 110%

Structure (SMILES): NC(=O)c1cc[n+](CC2=C(C(=O)O)N3C(=O)[C@@H](NC(=O)[C@@H](c4ccccc4)S(=O)(=O)[O-])[C@H]3SC2)cc1
- cell viability (compound concentration: 3 uM): 105%

Structure (SMILES): CCCCCCCCCc1ccc(OCCOCCOCCOCCOCCOCCOCCOCCOCCO)cc1
- cell viability (compound concentration: 3 uM): 114%

Structure (SMILES): CC(C)c1ccc2oc3nc(N)c(C(=O)O)cc3c(=O)c2c1
- cell viability (compound concentration: 3 uM): 92.3%

Structure (SMILES): CC1(C)S[C@@H]2[C@H](NC(=O)[C@H](NC(=O)N3CCNC3=O)c3ccccc3)C(=O)N2[C@H]1C(=O)O
- cell viability (compound concentration: 3 uM): 113%

Structure (SMILES): CC1(C)S[C@@H]2[C@H](NC(=O)[C@H](NC(=O)N3CCNC3=O)c3ccccc3)C(=O)N2[C@H]1C(=O)O [Azlocillin sodium salt]
- cell viability (compound concentration: 3 uM): 78%

Structure (SMILES): COC(=O)Nc1nc2cc(C(=O)c3ccccc3)ccc2[nH]1 [Mebendazol]
- cell viability (compound concentration: 3 uM): 76%

Structure (SMILES): COC(=O)Nc1nc2cc(C(=O)c3ccccc3)ccc2[nH]1 [Mebendazole]
- cell viability (compound concentration: 3 uM): 69.4%

Structure (SMILES): COC(=O)Nc1nc2cc(C(=O)c3ccccc3)ccc2[nH]1
- cell viability (compound concentration: 3 uM): 98.8%

Structure (SMILES): Clc1cnccn1 [2-Chloropyrazine]
- cell viability (compound concentration: 3 uM): 90.7%

Structure (SMILES): Nc1nc2c(ncn2[C@@H]2O[C@H](CO)[C@@H](O)[C@H]2O)c(=O)[nH]1 [Guanosine]
- cell viability [1]: 98%

Structure (SMILES): Cc1cc2c(cc1S(N)(=O)=O)S(=O)(=O)CCC2
- cell viability (compound concentration: 3 uM): 106%

Structure (SMILES): Cc1cc2c(cc1S(N)(=O)=O)S(=O)(=O)CCC2 [Meticrane]
- cell viability (compound concentration: 3 uM): 101%

Structure (SMILES): CN1CCc2cc(O)c(O)cc2C(c2ccccc2)C1 (stereo not given)
- cell viability (compound concentration: 3 uM): 118%

Structure (SMILES): CC[N+](C)(C)Cc1ccccc1Br [Bretylium tosylate]
- cell viability (compound concentration: 3 uM): 115%

Structure (SMILES): CC[N+](C)(C)Cc1ccccc1Br
- cell viability (compound concentration: 3 uM): 106%

Structure (SMILES): CCCCCCCCc1ccc(-c2ccc(C(=O)O)cc2)cc1
- cell viability (compound concentration: 3 uM): 89%

Structure (SMILES): C[N+](C)(C)CCCCCC[N+](C)(C)C
- cell viability (compound concentration: 3 uM): 109%

Structure (SMILES): C[N+](C)(C)CCCCCC[N+](C)(C)C [Hexamethonium bromide]
- cell viability (compound concentration: 3 uM): 111%

Structure (SMILES): C[N+](C)(C)CCCCCC[N+](C)(C)C [Hexamethonium dichloride]
- cell viability (compound concentration: 3 uM): 108%

Structure (SMILES): C[N+](C)(C)CCCCCC[N+](C)(C)C [Hexamethonium dibromide dihydrate]
- cell viability (compound concentration: 3 uM): 91.1%

Structure (SMILES): CC1C(=O)OC2C(O)C34C5CC(C(C)(C)C)C36C(OC(=O)C6O)OC4(C(=O)O5)C12O (stereo not given) [Ginkgolide B]
- cell viability [1]: 98.3%

Structure (SMILES): CCCCCC[C@@H]([C@@H](C)O)n1cnc2c(N)ncnc21 [erythro-9-(2-Hydroxy-3-nonyl)adenine hydrochloride]
- cell viability (compound concentration: 3 uM): 110%

Structure (SMILES): CN(C)/N=N/c1[nH]cnc1C(N)=O [Dacarbazine]
- cell viability (compound concentration: 3 uM): 110 ± 4.1%

Structure (SMILES): CN(C)/N=N/c1[nH]cnc1C(N)=O
- cell viability (compound concentration: 3 uM): 98.2 ± 2.6%

Structure (SMILES): Cc1onc(-c2c(Cl)cccc2Cl)c1C(=O)N[C@@H]1C(=O)N2[C@@H]1SC(C)(C)[C@@H]2C(=O)O [Dicloxacillin sodium salt]
- cell viability (compound concentration: 3 uM): 96.5%

Structure (SMILES): Cc1onc(-c2c(Cl)cccc2Cl)c1C(=O)N[C@@H]1C(=O)N2[C@@H]1SC(C)(C)[C@@H]2C(=O)O
- cell viability (compound concentration: 3 uM): 98.2%

Structure (SMILES): CN1C(C)(C)CCCC1(C)C
- cell viability (compound concentration: 3 uM): 111%

Structure (SMILES): CN1C(C)(C)CCCC1(C)C [Pempidine tartrate]
- cell viability (compound concentration: 3 uM): 110%

Structure (SMILES): CCOC(=O)[C@H](CCc1ccccc1)N[C@@H](C)C(=O)N1Cc2ccccc2C[C@H]1C(=O)O
- cell viability (compound concentration: 3 uM): 104%

Structure (SMILES): CCOC(=O)[C@H](CCc1ccccc1)N[C@@H](C)C(=O)N1Cc2ccccc2C[C@H]1C(=O)O [Quinapril]
- cell viability (compound concentration: 3 uM): 110%

Structure (SMILES): CCOC(=O)[C@H](CCc1ccccc1)N[C@@H](C)C(=O)N1Cc2ccccc2C[C@H]1C(=O)O [Quinapril HCl]
- cell viability (compound concentration: 3 uM): 96.6%

Structure (SMILES): CC(CCc1ccccc1)NCC(O)c1ccc(O)c(C(N)=O)c1 (stereo not given) [Labetalol hydrochloride]
- cell viability (compound concentration: 3 uM): 101 ± 8.9%

Structure (SMILES): CC(CCc1ccccc1)NCC(O)c1ccc(O)c(C(N)=O)c1 (stereo not given)
- cell viability (compound concentration: 3 uM): 108%

Structure (SMILES): Cc1cn(C2C=CC(CO)O2)c(=O)[nH]c1=O (stereo not given) [2',3'-didehydro-3'-deoxythymidine]
- cell viability (compound concentration: 3 uM): 110%

Structure (SMILES): O=C(O)c1cccnc1Nc1cccc(C(F)(F)F)c1 [Niflumic acid]
- cell viability (compound concentration: 3 uM): 94.7 ± 18%

Structure (SMILES): O=C(O)c1cccnc1Nc1cccc(C(F)(F)F)c1
- cell viability (compound concentration: 3 uM): 106%

Structure (SMILES): Cc1oncc1C(=O)Nc1ccc(C(F)(F)F)cc1 [Leflunomide]
- cell viability (compound concentration: 3 uM): 113 ± 16%

Structure (SMILES): COc1ccc(C(Cl)=C(c2ccc(OC)cc2)c2ccc(OC)cc2)cc1 [Chlorotrianisene]
- cell viability (compound concentration: 3 uM): 123%

Structure (SMILES): COc1ccc(C(Cl)=C(c2ccc(OC)cc2)c2ccc(OC)cc2)cc1
- cell viability (compound concentration: 3 uM): 117%

Structure (SMILES): CC1CC(OC(=O)C(O)c2ccccc2)CC(C)(C)C1 (stereo not given)
- cell viability (compound concentration: 3 uM): 116%

Structure (SMILES): Nc1nc2c(ncn2[C@H]2C[C@H](O)[C@@H](CO)O2)c(=O)[nH]1 [2'-Deoxyguanosine hydrate]
- cell viability [1]: 91.9%

Structure (SMILES): NS(=O)(=O)c1cc(C(=O)O)cc(N2CCCC2)c1Oc1ccccc1 [Piretanide]
- cell viability (compound concentration: 3 uM): 92.3%

Structure (SMILES): Cc1cc(C(C)(C)C)c(O)c(C)c1CC1=NCCN1 [Oxymetazoline hydrochloride]
- cell viability (compound concentration: 3 uM): 101.6 ± 0.54%

Structure (SMILES): Cc1cc(C(C)(C)C)c(O)c(C)c1CC1=NCCN1
- cell viability (compound concentration: 3 uM): 105%

Structure (SMILES): Cc1cc(C(C)(C)C)c(O)c(C)c1CC1=NCCN1 [Oxymetazoline]
- cell viability (compound concentration: 3 uM): 103%
